Consider seven molecules from article PMC6465247.

Amino acid sequences for entries named in this document (tags omitted). A change or cut given only in a name is not applied to a line headed by its entry.
UniProt B6EUB3: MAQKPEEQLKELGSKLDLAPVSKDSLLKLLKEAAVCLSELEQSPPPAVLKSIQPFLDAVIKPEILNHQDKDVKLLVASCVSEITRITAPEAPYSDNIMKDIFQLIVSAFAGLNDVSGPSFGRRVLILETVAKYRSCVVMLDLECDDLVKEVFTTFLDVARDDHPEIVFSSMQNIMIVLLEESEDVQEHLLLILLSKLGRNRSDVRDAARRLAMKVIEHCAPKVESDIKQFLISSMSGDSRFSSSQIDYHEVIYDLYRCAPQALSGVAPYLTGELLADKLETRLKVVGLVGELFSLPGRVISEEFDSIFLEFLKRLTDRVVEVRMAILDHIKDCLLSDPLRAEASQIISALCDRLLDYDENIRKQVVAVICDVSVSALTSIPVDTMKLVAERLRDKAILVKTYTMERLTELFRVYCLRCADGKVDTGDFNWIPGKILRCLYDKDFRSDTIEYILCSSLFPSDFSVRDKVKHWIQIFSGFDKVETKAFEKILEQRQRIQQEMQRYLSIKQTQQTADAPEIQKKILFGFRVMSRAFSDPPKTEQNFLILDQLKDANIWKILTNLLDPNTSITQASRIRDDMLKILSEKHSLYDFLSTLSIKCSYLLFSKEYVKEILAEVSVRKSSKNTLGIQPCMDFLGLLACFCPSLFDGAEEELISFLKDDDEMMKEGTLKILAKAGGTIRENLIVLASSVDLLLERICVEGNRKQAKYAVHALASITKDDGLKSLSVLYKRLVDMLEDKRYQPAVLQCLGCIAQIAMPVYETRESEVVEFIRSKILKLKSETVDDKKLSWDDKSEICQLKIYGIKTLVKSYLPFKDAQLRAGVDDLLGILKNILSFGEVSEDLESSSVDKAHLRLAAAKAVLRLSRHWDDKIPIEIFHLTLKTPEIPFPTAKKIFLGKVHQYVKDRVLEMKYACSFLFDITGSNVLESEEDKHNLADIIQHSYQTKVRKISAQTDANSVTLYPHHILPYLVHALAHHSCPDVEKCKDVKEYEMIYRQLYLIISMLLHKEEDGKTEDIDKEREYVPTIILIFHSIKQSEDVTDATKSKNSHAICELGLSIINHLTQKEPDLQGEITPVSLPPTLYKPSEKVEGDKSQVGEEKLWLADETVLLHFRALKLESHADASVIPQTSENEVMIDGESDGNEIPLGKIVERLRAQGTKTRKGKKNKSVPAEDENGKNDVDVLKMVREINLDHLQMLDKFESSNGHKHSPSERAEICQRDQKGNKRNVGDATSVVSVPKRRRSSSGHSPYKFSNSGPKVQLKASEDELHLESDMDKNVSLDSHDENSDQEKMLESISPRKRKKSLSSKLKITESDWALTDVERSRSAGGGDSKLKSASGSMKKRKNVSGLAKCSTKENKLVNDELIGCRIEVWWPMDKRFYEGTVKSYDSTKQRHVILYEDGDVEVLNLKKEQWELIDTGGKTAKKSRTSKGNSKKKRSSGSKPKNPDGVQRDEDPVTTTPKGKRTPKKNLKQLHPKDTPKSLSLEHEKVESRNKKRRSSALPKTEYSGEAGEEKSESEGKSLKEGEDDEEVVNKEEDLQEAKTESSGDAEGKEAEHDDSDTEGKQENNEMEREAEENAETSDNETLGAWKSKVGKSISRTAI
UniProt Q53KW9: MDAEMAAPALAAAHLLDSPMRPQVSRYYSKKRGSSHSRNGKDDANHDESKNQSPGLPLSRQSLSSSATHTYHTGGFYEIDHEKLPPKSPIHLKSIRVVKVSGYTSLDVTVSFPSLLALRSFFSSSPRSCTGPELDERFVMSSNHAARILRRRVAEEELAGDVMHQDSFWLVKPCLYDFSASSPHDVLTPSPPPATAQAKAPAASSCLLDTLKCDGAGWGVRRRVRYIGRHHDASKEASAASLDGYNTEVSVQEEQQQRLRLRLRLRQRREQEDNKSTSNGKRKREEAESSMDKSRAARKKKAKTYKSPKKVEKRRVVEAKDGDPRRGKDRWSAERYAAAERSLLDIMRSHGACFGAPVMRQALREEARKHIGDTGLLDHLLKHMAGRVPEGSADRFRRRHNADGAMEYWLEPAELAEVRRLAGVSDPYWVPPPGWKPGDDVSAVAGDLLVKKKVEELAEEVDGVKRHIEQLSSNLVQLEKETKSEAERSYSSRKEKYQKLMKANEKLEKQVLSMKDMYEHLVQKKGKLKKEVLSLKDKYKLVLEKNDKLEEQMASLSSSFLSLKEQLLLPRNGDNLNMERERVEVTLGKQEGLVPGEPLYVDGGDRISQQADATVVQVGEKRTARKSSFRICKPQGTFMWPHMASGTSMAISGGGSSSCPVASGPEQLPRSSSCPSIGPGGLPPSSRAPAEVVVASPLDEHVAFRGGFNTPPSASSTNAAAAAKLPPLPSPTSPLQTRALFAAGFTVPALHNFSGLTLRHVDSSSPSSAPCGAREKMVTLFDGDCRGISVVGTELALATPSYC

The target of experiment [1] is Arabidopsis PDS5A, yeast two-hybrid fusion used with the AM1 homologs (Arabidopsis thaliana) (UniProt B6EUB3). Put plainly: two-hybrid; Matchmaker Gold system (Clontech), pGADT7-GW and pGBKT7-GW fusions co-transformed into yeast AH109; growth on SD/-Leu -Trp -His.
Experiment [2] addresses PDS5A, BiFC fusion (Arabidopsis thaliana) (UniProt B6EUB3). Put plainly: split reporter; competitive BiFC in tobacco leaf cells: pBiFC-2in1-NN pair co-infiltrated with SWI1-mTurquiose2 or WAPL1-mTurquiose2 (35S promoter).
The target is the same in experiment [3]. Put plainly: split reporter; BiFC and ratiometric BiFC (pBiFC-2in1-NN, YFP against RFP as reference) in tobacco leaves after Agrobacterium infiltration; imaged 2 days after infiltration.
Experiment [4] concerns the target PDS5A^810-1607, yeast two-hybrid fusion (Arabidopsis thaliana) (UniProt B6EUB3). The experiment can be described thus: two-hybrid; Matchmaker Gold system (Clontech), pGADT7-GW and pGBKT7-GW fusions co-transformed into yeast AH109; growth on SD/-Leu -Trp -His.
Experiment [5] has as its target N-terminus of PDS5A, BiFC fusion (Arabidopsis thaliana). Put plainly: split reporter; BiFC and ratiometric BiFC (pBiFC-2in1-NN, YFP against RFP as reference) in tobacco leaves after Agrobacterium infiltration; imaged 2 days after infiltration.
The target in experiment [6] is C-terminus of PDS5A, BiFC fusion (Arabidopsis thaliana). The description is as above.

Results are given in words; binding and its absence hold for the method and conditions named. For some assays here: A result given as binding can be weak or reduced; the word gives no strength. Where a sequence is shown, tags or fusion partners need not be part of it. For some assays here: In cells and extracts the contact can be indirect.

Regarding “AMEIOTIC 1 of rice (OsAM1), yeast two-hybrid fusion (from UniProt Q53KW9)”, in experiment [1], the binding result is given as “binds”.

B1: SWI1, BiFC fusion (protein, UniProt Q9FGN8 1-639)
chain: MSSTMFVKRNPIRETTAGKISSPSSPTLNVAVAHIRAGSYYEIDASILPQRSPENLKSIRVVMVSKITASDVSLRYPSMFSLRSHFDYSRMNRNKPMKKRSGGGLLPVFDESHVMASELAGDLLYRRIAPHELSMNRNSWGFWVSSSSRRNKFPRREVVSQPAYNTRLCRAASPEGKCSSELKSGGMIKWGRRLRVQYQSRHIDTRKNKEGEESSRVKDEVYKEEEMEKEEDDDDGNEIGGTKQEAKEITNGNRKRKLIESSTERLAQKAKVYDQKKETQIVVYKRKSERKFIDRWSVERYKLAERNMLKVMKEKNAVFGNSILRPELRSEARKLIGDTGLLDHLLKHMAGKVAPGGQDRFMRKHNADGAMEYWLESSDLIHIRKEAGVKDPYWTPPPGWKLGDNPSQDPVCAGEIRDIREELASLKRELKKLASKKEEEELVIMTTPNSCVTSQNDNLMTPAKEIYADLLKKKYKIEDQLVIIGETLRKMEEDMGWLKKTVDENYPKKPDSTETPLLLEDSPPIQTLEGEVKVVNKGNQITESPQNREKGRKHDQQERSPLSLISNTGFRICRPVGMFAWPQLPALAAATDTNASSPSHRQAYPSPFPVKPLAAKRPLGLTFPFTIIPEEAPKNLFNV
In the case of B1, the binding result in experiment [2] and in experiment [3] was “binds” each time.

B2: SWITCH 1/DYAD (SWI1), yeast two-hybrid fusion (protein, UniProt Q9FGN8 1-639)
chain: B1 chain
For the molecule B2, the binding entry in experiment [4] is “no binding”.

B3: SWI1-mTurquiose2 (protein, UniProt Q9FGN8 1-639)
chain: B1 chain
Turning to B3, in experiment [2], the binding result is reported as “binds”.

B4: AMEIOTIC 1 of maize (ZmAM1), yeast two-hybrid fusion (protein, UniProt C0RWW9 1-780)
chain: MDVETVQAGPALAAHLQLQASPKPQVKKYYFKKKTSSSHSRNGKDDVNHDSTIQPRSPLSRQSLTFDAIPTYHAGAFYEIDHDKLPPKSPIHLKSIRVVKVSECTNLDITVKFPSLQALRSFFSSYPAPGTGPELDERFVMSSNHAARILRRRVTEEELEGEVQQDSFWLIKPRLYDFAAPQQVPSRTLCLPPPPAPPAATLGLTADSCLLTTLKCDGAGWGMRRRVRYIGRHRDEAPKEASVDGYDTESSVREVQQPPATQEVKRSERNCKRKREAEASSKDNNGDEGKKNNKVQGASKKISKKAKKRTVESKDGDPRHGKDRWSAERYAAAEKSLLNIMRSRDARFGAPVMRQVLREEARKHIGDTGLLDHLLKHMAGRVPEGSVHRFRRRHNADGAMEYWLEPAELAEVRKQAGVSDPYWVPPPGWKPGDDVSLVAGDILVKRQVEELTEEVNGVKRQMEQLLCKDDGDFGAERDYSSLKEKYQRAVRANEKLEKQVLCLKDMCENVVQMNGELKKEVSAFKEKYEHIADKNDKLEEQVTYLSSSFLSFKDQLVVALKLELAPSEAVPRTALFVASGEQMTGTVIQGGQDRAERKSSFRVCKPQGKFLLPSMASGMTIGRGASSTCPAAATPGPGIPRSTSFPSMPGLPRSSRGPVEVVAAASGLDEHVMFGAHFSTPPSASSTNDAAKLQLSLPSPRSPLQPQKLFDTVTAAASGFSPQKLMHFSGLTRRDVDTSSSSSGACGSGLLEGKRVLFDADAGGISAVGTELALATPSYC
Take B4: the binding result in experiment [1] is recorded as “binds”.

B5: WAPL1, BiFC fusion (protein, UniProt F4I7C7 1-930)
chain: MIIVKLTANRICCSLLQLRRSYEHFYIFVFLPEIPLFRFSHLKLFPKNLQIQRLVSAMMERTYGRRKPGIPRTLSDSLNDSVSQTEYLSSSSSPDIEPIDYSLLPFSSQESSSLWHSSSRSNFREDYPQNGGVVRRAKRVRNGAEAAAFTSTLLEAQEFGELMEHEDEVNFALDGLRKGHQLRIRRASLSSLLSICASQHQRRSLRAQGISQSIIDAILVLSLDDIPSNLAAATLFFALTADGQDEHFMESPKCIKFLIKLLKPVIVTSTEGKPRNIGFKLLSLLKDVDAARDPVKMDDPSSSDILSRVQELLVNCKEMRLNDSYITETTRPELSTKWVALLAMERACVSKISFDDTSGSVKKTGGNFKEKLRELGGLDAVLEVVMDCHAVMERWVEYDALSVQEKKDNLHKQSLMLLLKCLKIMENATFLSTDNQNHLLGFKKCLGSHDSRMSFTELTISVIKMLSGLHLRGGFSSPNTNNVNSHYSNGGNHDSVLEANRKVTNEVVTISSDTYSTVGSISTRNGSVSQRSQSIIHLDFSPTSMSGSQSSVSGNEPTTSKTRVGSTISGSFAGRLASLGSDIARTTLRTTQAGEPICKKFGEFAPPEESEDPFAFDLEDYKPSKWAVVSVNQKKSRAQKKKGCYKQSKDESLYQLFSSQEESSNHRLNSQEESSNRDCSTSLQPSHCTNDIDEECLCLLFDCLLTAVKVLMNLTNDNVVGCRQVGGCRGLESMAELIARHFPSFTRSQLFSEMEKTGSSHQKKDKYLTDQELDFLVAILGLLVNLVERDGVNRSRLASASVPITKPEELQESEQEMIPLLCSIFLTNQGSAETKEETTTFTLDDEEAVLEGEKEAEKMIVEAYSALLLAFLSTESRSIRNSIKDYLPKRNLAILVPVLERFVAFHMTLNMIPPETHKAVMGVIESCKSP
As to B5, the binding result was “binds” in experiment [2], “binds” in experiment [3], “binds” in experiment [5] and “no binding” in experiment [6].

B6: WINGS APART-LIKE 1 (WAPL1), yeast two-hybrid fusion (protein, UniProt F4I7C7 1-930)
chain: B5 chain
Regarding B6, the binding result in experiment [4] was “no binding”.
